Laboratory results reported in patent publication US20240279325A1.
These are yes or no findings as the source states them, for the method shown. Binding calls can cover weak binding; strength is not graded here.

Protein sequences, listed by entry. Tags and fused reporters are not part of them. Lines headed by an entry give the natural chain unless they say otherwise; changes in a name come on top.
UniProt P08887: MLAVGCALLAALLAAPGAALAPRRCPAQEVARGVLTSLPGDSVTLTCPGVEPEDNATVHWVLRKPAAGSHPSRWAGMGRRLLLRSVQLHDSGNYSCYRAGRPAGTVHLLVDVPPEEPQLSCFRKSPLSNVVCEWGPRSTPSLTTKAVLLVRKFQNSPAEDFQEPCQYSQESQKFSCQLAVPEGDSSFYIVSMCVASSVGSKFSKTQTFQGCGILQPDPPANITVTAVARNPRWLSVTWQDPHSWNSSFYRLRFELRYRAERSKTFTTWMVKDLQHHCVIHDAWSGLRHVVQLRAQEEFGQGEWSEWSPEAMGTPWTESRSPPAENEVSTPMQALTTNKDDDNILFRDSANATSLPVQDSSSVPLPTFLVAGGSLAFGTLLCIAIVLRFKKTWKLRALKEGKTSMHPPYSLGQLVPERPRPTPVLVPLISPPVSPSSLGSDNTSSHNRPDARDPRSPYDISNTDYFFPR

Columns and labels:
[1] = molecular target: soluble human IL-6 receptor (human) (UniProt P08887); test: SPR (Biacore T100), antibody captured on Protein A/G, pH 7.4, 37°C
[2] = molecular target: soluble human IL-6 receptor (human) (UniProt P08887); test: SPR (Biacore T100), antibody captured on Protein A/G on a CM5 chip, human IL-6 receptor injected for 3 min, […] CaCl2, pH 7.4, 37 C
[3] = molecular target: soluble human IL-6 receptor (human) (UniProt P08887); test: SPR (Biacore T100), antibody captured on Protein A/G on a CM5 chip, human IL-6 receptor injected for 3 min, 3 uM CaCl2, pH 7.4, 37 C
[4] = molecular target: soluble human IL-6 receptor (human) (UniProt P08887); test: SPR (Biacore T100), antibody captured on Protein A/G, […] Ca, 37°C
[5] = molecular target: soluble human IL-6 receptor (human) (UniProt P08887); test: SPR (Biacore T100), about 300 RU of antibody captured on Protein A/G on a CM5 chip, human IL-6 receptor injected for 3 min, pH 7.4, […] CaCl2, 37 C

| binding [1] | binding [2] | binding [3] | binding [4] | binding [5] | Binder |
| --- | --- | --- | --- | --- | --- |
| binds | binds | binds |  |  | 6RC1IgG_012 (antibody, V domains shown) VH: QVQLVQSGAEVKKPGASVKVSCKASGYTFTSYGISWVRQAPGQGLEWMGWISAYNGNTNYAQKLQGRVTMTTDTSTSTAYMELRSLRSDDTAVYYCARATYYYDSSAPAFDIWGQGTMVTVSS VL: DIQMTQSPSSLSASVGDRVTITCRASQSIEDDLAWYQQKPGKAPKLLIYEASTLQSGVPSRFSGSGSGTDFTLTISSLQPEDFATYYCQQHDDSPLTFGQGTKVEIKR |
|  |  |  | binds | binds | 6RpH #03 (antibody, human IgG1, kappa, V domains shown) VH: EVQLVQSGGGLVQPGGSLRLSCAASGFTFSNAWMIWVRQAPGKGLEWVGRIKSKVDGGTTDYAAPVKGRFTISRDDSKNTLYLQMDSLKTEDTAVYYCVADVPASNPYGFDYWGQGTLVTVSS VL: DIQMTQSPSSLSASVGDRVTITCRASQSINSHLNWYQQKPGKAPKLLIYDASHLQSGVPSRFSGSGSGTDFTLTISSLQPEDFATYYCQQHNNYPLTFGQGTKVEIKR |
